Here are results for one sequence from article PMC6526552.

Sequences of proteins named here, by UniProt entry; tags and fusion partners are left off. Residues count along the entry.
UniProt P02649, 19-169: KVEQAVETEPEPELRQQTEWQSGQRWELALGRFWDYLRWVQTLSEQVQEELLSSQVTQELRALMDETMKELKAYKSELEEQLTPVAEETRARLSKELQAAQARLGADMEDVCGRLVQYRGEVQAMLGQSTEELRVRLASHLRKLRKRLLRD
UniProt P02649, 19-317: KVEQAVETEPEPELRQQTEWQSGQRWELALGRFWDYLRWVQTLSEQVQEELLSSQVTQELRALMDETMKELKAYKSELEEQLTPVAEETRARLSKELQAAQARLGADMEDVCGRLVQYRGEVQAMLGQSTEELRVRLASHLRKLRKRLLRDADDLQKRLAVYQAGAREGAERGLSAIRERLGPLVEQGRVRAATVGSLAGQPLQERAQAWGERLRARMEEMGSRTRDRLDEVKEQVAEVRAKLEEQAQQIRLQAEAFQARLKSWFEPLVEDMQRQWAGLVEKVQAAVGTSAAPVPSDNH

Construct, isoform or probe ends are uncertain for at least one entry. For part of these data: A negative result means that nothing was seen under these conditions. For part of these data: The comparison behind a weaker result is the experiment's own reference, which may not be listed here.

The target in series [1] is nApoE4(1-151), amino-terminal fragment of apoE4 (UniProt P02649). In words: EMSA. The conditions noted are these: EMSA: 1x binding buffer (Thermo 20148), 2.5% glycerol, 5 mM MgCl2, 50 ng/µl poly(dI-dC), 0.05% NP-40, 20 µl, room temperature 20 min, 5% TBE gel, 0.5x TBE, recombinant protein, residues 19-169, label: 5' biotin. (In general: In EMSA bound probe runs differently from free probe, usually more slowly.)

Another series deals with full-length apoE4 (UniProt P02649). In words: EMSA. The conditions noted are these: 5 mM MgCl2, poly(dI-dC), 3.6 µg protein per 20 µl in Methods (legend: 25 µg/ml), 20 fmol DNA; EMSA: 1x binding buffer (Thermo 20148), 2.5% glycerol, 5 mM MgCl2, 50 ng/µl poly(dI-dC), 0.05% NP-40, 20 µl, room temperature 20 min; 5% TBE gel, 0.5x TBE; recombinant protein; label: 5' biotin.

For “ATGCTTGTGTGTCCCCAACTTTCCAAATCCCCGCCCCCGCGATGGAGAAGAAACCGAGACAGAAGGTGCAGGGCCCACTACCGCTTCCTCCAGATGAGCTCATGGGTTTCTCCACCAAGGAAGTTTTCCGCTGGTTGAATGATTCTTTCCCCGCCCTCCTCTCGCCCCAGGGACATATAAAGGCAGTTGTTGGCACACCA (double strand)”, the binding result was “binds” in series [1] (5 mM MgCl2, poly(dI-dC), 3.6 µg protein per 20 µl in Methods (legend: 25 µg/ml), 20 fmol DNA); “binds more weakly” in series [1] (fragment preincubated with anti-His antibody, shift somewhat attenuated but still evident); “no binding” in the series with full-length apoE4.
